Residue numbers refer to the chain shown, from its start. These are yes or no findings as the source states them, for the method shown. Binding calls can cover weak binding; strength is not graded here.
B1: 5S8 (Fab, V domains shown)
VH: QSVEESGGRLVTPGTPLTLTCTVSGFSLSSYAMTWVRQAPGKGLEWIGVIGTSGMRYYANWAKGRFTISKTSTTVDLKITSPTTEDTATYFCARANFYVGNDESTDAFDPWGPGTLVTVSS
VL: ALVMTQTPPSLSASVGETVRIRCLASEDIYNTISWYQQKPGKPPTLLIYGASNLKSGVPPRFSGSGSGTDYTLTIGGVQSEDAATYYCLGGYSYSSTGLTFGAGTKVEIK
notes: Chimeric rabbit/human Fab, kappa, with 6xHis tag in SPR, zymosan and JeKo-1 assays; also called Fab 5S8; 5S8 r/h-IgG1k
B2: 3NS1 (Fab, V domains shown)
VH: QSVEESGGRLVTPGTPLTLTCTVSGFSLSNYIITWVRQAPGKGLEWIGMISTDGDTYYANWAKGRFTISKTSTTANLKITSPTTEDTATYFCARGLTNFFIWGPGTLVTVSS
VL: QPVLTQSPSVSAALGASAKLTCTLSSAHKTYSIGWYQQHQGEAPRFLMQLRRDGSYTKGTGVPDHFSGSSSGADRYLIIPNVQADDEADYYCGVDYDGGYVFGGGTQLTVTG
notes: Chimeric rabbit/human Fab, lambda, with 6xHis tag; also called 3NS1 r/h-IgG1λ
B3: d301 (Fab, V domains shown)
VH: QSLEESGGRLVTPGTPLTLTCTVSGFSLSTYTLGWVRQAPGKGLEYIGWIDSSGSAYYASWAKGRFTISKASSTTVDLKMAGLTTEDTATYFCASGNTGGDPLYYGMDPWGPGTLVTVSS
VL: DPVLTQTPSSTSAAVGGTVTIKCQASQNIGRWLAWYQQKPGQPPKLLIYRASDLASGVPSRFKGSGSGTQFTLTISGVQREDAATYYCLGSYSSSDSAFGGGTEVVVK
notes: Chimeric rabbit/human Fab, kappa, with 6xHis tag; also called Fab d301; d301 r/h-IgG1k
B4: 3N07 (Fab, V domains shown)
VH: B3 VH with T30R, L33M, G34A, A56T, A71T, A81T, G82S, T98D
VL: DGVMTQTPSSTSAAVGGTVTIKCQASQSIRSWLSWYQQKPGQPPKLLIYEASKLASGVPSRFKGSRSGTEYTLAISGVQREDAATYYCLGSIASDDTAFGAGTNVEIK
notes: Chimeric rabbit/human Fab, kappa, with 6xHis tag; also called Fab 3N07; 3N07 r/h-IgG1k

biological target: PNHCS/ΔC5 2h (human); experiment: flow cytometry: Fab at 2.5 µg/mL on JeKo-1 cells opsonized with 10 µg/mL rituximab and incubated with 50% C5-depleted human serum for 2 h without CR1

| Binder | binding |
| --- | --- |
| B1 | binds |
| B2 | binds |
| B3 | binds |
| B4 | binds |

— patent US20230029635A1 (US Dept. of Health and Human Services, published 2023)
